According to patent publication US20220098197A1, “SALTS OF HETEROCYCLIC COMPOUND AND USE THEREOF” (priority 2019, published 2022):
For at least one compound, name, drawing or mass did not settle the structure.

Columns and labels:
Format in all cases: in vivo, Balb/c mice
[1] = test system: CS-induced ALI mice; assay: CS-induced lung injury model: pulmonary histopathology (H&E)
Experimental: (§1) Model preparation: The mice were randomly divided into 5 groups (12 mice in each group), which were the control group (the mice were exposed to fresh air), the saline group (the mice were exposed to cigarette smoke), dexamethasone (Dex) group (1 mg/kg) (the mice were exposed to cigarette smoke), CT-NA 10 mg/kg group and CT-NA 30 mg/kg group (the mice were exposed to cigarette smoke). According to the grouping, the mice were intragastrically administered saline, Dex and CT-NA, respectively. Thereafter, the mice were exposed to fresh air or cigarette smoke generated from 3R4F research-grade cigarettes (containing about 600 mg TPM/m^3 and 29.9 mg nicotine/m^3) in a cuboid plastic box (65×50x×45 cm). Ten cigarettes were burned every day for seven days. After one cigarette was burned, the next cigarette was ignited. The daily body weight and general condition of the mice were checked. 24 hrs after the last exposure to the cigarette smoke, the partial pressure of oxygen (PO2) of all mice was measured by the Moor VMS-OXY™ measuring instrument, which was used to measure the oxygenated/deoxygenated hemoglobin concentration and oxygen saturation (percentage) in the microcirculation at the wavelength range of 500 to 650 nm. Then, all mice were euthanized to collect bronchoalveolar lavage fluid (BALF) for measuring the total number of inflammatory cells, cytokine levels and albumin concentration. […]

[2] = test system: LPS-induced ALI mice; assay: LPS-induced ALI model: pulmonary vascular permeability by Evans blue dye; conditions: CT-NA 10 mg/kg (P<0.05) or 30 mg/kg (P<0.01), Dex 1 mg/kg (P<0.01)
Experimental: (§2) Evans Blue was a dye that could quickly bind to albumin and was remains restricted within blood vessels because the endothelium was impermeable to albumin under normal physiological conditions. Pulmonary microvascular permeability was assessed by measuring the extravasation of Evans blue dye in the lungs. The method was briefly described as follows. The mice were randomly divided into control group (12 mice) and LPS group (48 mice). The LPS group (48 mice) was further divided into four subgroups (each subgroup contains 12 mice). To measure pulmonary microvascular permeability, the unanaesthetized mice of LPS group received intragastric instillation of NS, CT-NA at 10 mg/kg or 30 mg/kg, or Dex at 1 mg/kg respectively. One hour later, the anaesthetized mice were intratracheally instilled with NS (control group) and LPS (all LPS subgroups) at 10 μl/10 g of body weight. […] And then the absorbance of the Evans blue dye extracted in the supernatant was measured against formamide blank at 620 nm via standard curve method, and expressed as microgram of dye per 100 mg of wet lung weight. In addition, the concentration of albumin in BALF was measured at 628 nm using a spectrophotometer and an albumin measurement kit. The albumin concentration ratio assessed from BALF represented not only the albumin level but also the permeability of the pulmonary microvascular.

[3] = test system: LPS-induced ALI mice; assay: LPS-induced ALI model: pro-inflammatory cytokines and chemokines in BALF by ELISA; conditions: CT-NA 10 or 30 mg/kg, Dex 1 mg/kg, dose-dependent, P<0.05 or P<0.01
Experimental: (§3) Specific pathogen-free (SPF) Balb/c mice (♂/♀; 20-26 g; 8 weeks old) were purchased from Shanghai SIPPR-BK Experimental Animal Co., Ltd. Mice were kept in an isolated ventilated cage in an environment of 40-60% humidity, 24±2° C., and 12 hrs/12 hrs dark-light cycle, and had free access to food and water. The method for preparing the LPS-induced ALI model was simply described as follows. The mice were randomly divided into a control group (12 mice) and an LPS group (48 mice). The LPS group (48 mice) was further divided into four subgroups (12 mice in each subgroup). The unanaesthetized mice in the four subgroups of LPS were intragastrically administered with normal saline (NS), CT-NA at 10 mg/kg or 30 mg/kg, and Dex at 1 mg/kg, respectively. […] 24 hrs after LPS challenge, the oxygen saturation (SO2) of all mice was measured by a Moor VMS-OXY™ instrument which measured SO2 (%) in the microcirculation at the wavelength range of 500 to 650 nm. […]
The expression levels of pro-inflammatory cytokines (TNF-α, IL-1β, IL-6), and chemokines (KC, mouse IL-8 homolog) in the BALF supernatant were determined by using respective ELISA determination kits according to the instruction manual. After measurements of the optical density at 450 nm, the expression level was calculated via the standard curves.

[4] = test system: CS-induced ALI mice; assay: CS-induced lung injury model: inflammatory cells counting in BALF; conditions: intragastric before CS exposure, 7 days; CT-NA 10 and 30 mg/kg, Dex 1 mg/kg; BALF 24 hrs after last CS; p<0.01
Experimental: as §1, with “Specific pathogen-free (SPF) female Balb/c mice (22-28 g; aged 8 weeks) were purchased from Shanghai SIPPR-BK Experimental Animal Co., Ltd. […] Model” for “Model”, “After one cigarette was burned, the next cigarette was ignited. The daily body weight and general condition of the mice were checked.” left out, “[…] The supernatant was aliquoted and stored at −80° C. until” for “Then, all mice were euthanized to collect bronchoalveolar lavage fluid (BALF) for measuring”, “the” for “the total number of inflammatory cells,”, “or” for “levels and”, “concentration was measured.” for “concentration.”

[5] = test system: LPS-induced ALI mice; assay: LPS-induced ALI model: oxygen saturation (SO2); conditions: CT-NA 10 or 30 mg/kg (P<0.01, dose-dependent), Dex 1 mg/kg; 24 hrs after LPS
Experimental: as §3, with “respectively. One hour later, the mice were anesthetized with sodium pentobarbital (intraperitoneal injection at 40 mg/kg), and then subjected to intratracheal instillation of NS to control group and LPS (4 mg/kg) to all LPS subgroups. 12 hrs later, the unanaesthetized mice of the LPS group were intragastrically administered with NS, CT-NA at 10 mg/kg or 30 mg/kg, or Dex at 1 mg/kg, respectively (FIG. 16).” for “respectively.”

[6] = test system: LPS-induced ALI mice; assay: LPS-induced ALI model: lung MPO activity assay; conditions: CT-NA 10 or 30 mg/kg (P<0.01, dose dependence), Dex 1 mg/kg (P<0.01)
[7] = test system: LPS-induced ALI mice; assay: LPS-induced ALI model: lung weight coefficient; conditions: CT-NA 10 or 30 mg/kg (P<0.01, dose-dependent), Dex 1 mg/kg; 24 hrs after LPS
Experimental: as §3, with “subgroup).” for “subgroup). The unanaesthetized mice in the four subgroups of LPS were intragastrically administered with normal saline (NS), CT-NA at 10 mg/kg or 30 mg/kg, and Dex at 1 mg/kg, respectively.”
The mice were euthanized to expose the trachea, and then the right lungs were lavaged three times with 0.4 mL/time of sterile normal saline containing bovine serum albumin (BSA) and 5000 IU/L heparin to collect the BALF via tracheal tube. […] The removed lung tissues were weighted after aspirating the surface blood, and the lung weight coefficient was calculated. The lung weight coefficient was an indicator of pulmonary edema, and it was measured by dividing the individual lung weight of each mouse by its total body weight.

[8] = test system: CS-induced ALI mice; assay: CS-induced lung injury model: lung MPO assay; conditions: CS exposure; CT-NA 10 and 30 mg/kg, Dex 1 mg/kg; p<0.01
[9] = test system: LPS-induced ALI mice; assay: LPS-induced ALI model: albumin in BALF; conditions: CT-NA 10 mg/kg (P<0.05) and 30 mg/kg (P<0.01), Dex 1 mg/kg (P<0.01); 24 hrs after LPS
Experimental: as §2

[10] = test system: LPS-induced ALI mice; assay: LPS-induced ALI model: histological examination (H&E)
Experimental: as §3
The lower lobe of the left lung of each mouse was inflated with neutral buffered 10% formalin instilled at room temperature under constant pressure of 22 to 25 cm H2O for 48 hrs. […] Pulmonary edema, hemorrhage, alveolar wall thickening and infiltration of neutrophils and inflammatory cells were counted and scored to evaluate the severity of lung injury. […] The total lung injury score was expressed as the sum of the four criteria. […]

SMILES: C[C@@H]1C[C@H]2[C@@H]3CCC4=CC(=O)C=C[C@]4(C)[C@@]3(F)[C@@H](O)C[C@]2(C)[C@@]1(O)C(=O)CO [Dex, dexamethasone, reference compound]
- mean pathological scores ([1]; CT-NA 10 and 30 mg/kg, Dex 1 mg/kg, 5-point scoring, dose-dependent, p<0.01): considerably reduced
- CS-induced pulmonary histopathological changes ([1]; pretreatment with CT-NA 10 and 30 mg/kg or Dex 1 mg/kg, H&E): strikingly improved
- LPS-induced pulmonary vascular leakage and extravasation of Evans Blue dye [2]: significantly reduced
- production of IL-1β, TNF-α, IL-6 and KC in BALF [3]: effectively reduced
- number of total cells, macrophages and neutrophils in BALF [4]: significantly reduced
- oxygen saturation (SO2) [5]: enhanced
- MPO activity in lung tissues [6]: remarkably reduced
- lung wet weight coefficient [7]: reduced
- MPO activity of lung tissues [8]: attenuated
- albumin content in BALF [9]: considerably reduced
- pathological scores ([10]; CT-NA 10 mg/kg (P<0.05) and 30 mg/kg (P<0.01), Dex 1 mg/kg (P<0.01)): considerably reduced
- LPS-induced pulmonary histopathological changes ([10]; CT-NA 10 or 30 mg/kg (dose dependence) or Dex 1 mg/kg, H&E): significant reduction
